Assay results: publication PMC4982137, “Mycobacterium tuberculosis H37Ra: a surrogate for the expression of conserved, multimeric proteins of M.tb H37Rv” (Microbial Cell Factories, 2016)

Chains of the proteins cited; added tags and fusions are not shown.
UniProt P9WN83: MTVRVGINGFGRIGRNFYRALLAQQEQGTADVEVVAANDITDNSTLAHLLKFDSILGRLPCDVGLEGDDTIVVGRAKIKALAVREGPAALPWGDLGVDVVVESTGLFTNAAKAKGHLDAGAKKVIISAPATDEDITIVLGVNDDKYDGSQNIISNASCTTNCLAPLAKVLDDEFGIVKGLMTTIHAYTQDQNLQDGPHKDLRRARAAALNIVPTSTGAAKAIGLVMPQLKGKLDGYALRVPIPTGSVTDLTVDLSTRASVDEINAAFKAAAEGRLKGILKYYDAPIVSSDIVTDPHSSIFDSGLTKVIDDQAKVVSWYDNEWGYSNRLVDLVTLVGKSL
UniProt A0QWW2: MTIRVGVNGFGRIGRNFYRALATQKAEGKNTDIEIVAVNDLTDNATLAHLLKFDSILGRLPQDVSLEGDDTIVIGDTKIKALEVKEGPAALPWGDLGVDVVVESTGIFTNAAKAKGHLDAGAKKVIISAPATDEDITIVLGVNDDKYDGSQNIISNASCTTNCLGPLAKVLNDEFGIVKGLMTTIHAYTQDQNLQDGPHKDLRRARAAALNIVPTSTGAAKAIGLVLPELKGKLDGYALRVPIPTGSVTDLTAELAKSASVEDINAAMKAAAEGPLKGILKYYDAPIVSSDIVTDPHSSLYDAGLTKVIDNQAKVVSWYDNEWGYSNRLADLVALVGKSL

Molecular target: MS-GAPDH-H: recombinant M.tb H37Rv GAPDH with a C-terminal 8XHis tag, expressed in M. smegmatis (the (Mycobacterium tuberculosis H37Rv) (UniProt P9WN83))
Experiment: affinity purification with mass spectrometry

**Q.** Which binding does the source give for “native M. smegmatis GAPDH (from UniProt A0QWW2 1-340) (enzyme)” here?
**A.** binds

No constants are given. Whether binding was seen depends on the method and setting. In cells and extracts the contact can be indirect. These calls come from enrichment with a bait or labelling near it, and not all partners need be listed.
